# According to the supplement of paper PMC8728848:
# The other results are listed elsewhere or left out.
# Tests used:
# Assay in all cases: glycan array binding signal (z-score within array); higher = stronger binding
# Conditions in all cases: glycan notation: IUPAC condensed, linker removed
# [1] = molecular target: GlcNAc(b1-3)Gal(b1-4)GlcNAc(b1-3)Gal(b1-4)GlcNAc(b1-2)Man(a1-3)[GlcNAc(b1-3)Gal(b1-4)GlcNAc(b1-3)Gal(b1-4)GlcNAc(b1-2)Man(a1-6)]Man(b1-4)GlcNAc(b1-4)GlcNAc
# Outline: (§1)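 Glycan array data came from 3228 arrays in the Consortium for Functional Glycomics database, and only arrays with an available protein sequence were kept. Glycan names were put into IUPAC-condensed notation, and columns mapping to the same glycan were averaged. The binding signal is a within-array Z-score, averaged across arrays of one protein sequence run at different concentrations or buffers and across linkers. A negative Z-score can be read as non-binding.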
# [2] = molecular target: GlcNAc(b1-3)Gal(b1-4)GlcNAc(b1-3)Gal(b1-4)GlcNAc(b1-2)Man(a1-3)[GlcNAc(b1-3)Gal(b1-4)GlcNAc(b1-3)Gal(b1-4)GlcNAc(b1-2)Man(a1-6)]Man(b1-4)GlcNAc(b1-4)[Fuc(a1-6)]GlcNAc
# Outline: as §1
# [3] = molecular target: GlcNAc(b1-3)Gal(b1-4)GlcNAc(b1-3)Gal(b1-4)GlcNAc(b1-2)[GlcNAc(b1-3)Gal(b1-4)GlcNAc(b1-3)Gal(b1-4)GlcNAc(b1-6)]Man(a1-6)[GlcNAc(b1-3)Gal(b1-4)GlcNAc(b1-3)Gal(b1-4)GlcNAc(b1-2)Man(a1-3)]Man(b1-4)GlcNAc(b1-4)[Fuc(a1-6)]GlcNAc
# Outline: as §1
# [4] = molecular target: GlcNAc(b1-3)Gal(b1-4)GlcNAc(b1-3)Gal(b1-4)GlcNAc(b1-3)Gal(b1-4)GlcNAc(b1-2)Man(a1-3)[GlcNAc(b1-3)Gal(b1-4)GlcNAc(b1-3)Gal(b1-4)GlcNAc(b1-3)Gal(b1-4)GlcNAc(b1-2)Man(a1-6)]Man(b1-4)GlcNAc(b1-4)GlcNAc
# Outline: as §1
# [5] = molecular target: GlcNAc(b1-3)Gal(b1-4)GlcNAc(b1-3)Gal(b1-4)GlcNAc(b1-3)Gal(b1-4)GlcNAc(b1-2)Man(a1-3)[GlcNAc(b1-3)Gal(b1-4)GlcNAc(b1-3)Gal(b1-4)GlcNAc(b1-3)Gal(b1-4)GlcNAc(b1-2)Man(a1-6)]Man(b1-4)GlcNAc(b1-4)[Fuc(a1-6)]GlcNAc
# Outline: as §1
# [6] = molecular target: GlcNAc(b1-3)Gal(b1-4)GlcNAc(b1-3)Gal(b1-4)GlcNAc(b1-3)Gal(b1-4)GlcNAc(b1-2)[GlcNAc(b1-3)Gal(b1-4)GlcNAc(b1-3)Gal(b1-4)GlcNAc(b1-3)Gal(b1-4)GlcNAc(b1-6)]Man(a1-6)[GlcNAc(b1-3)Gal(b1-4)GlcNAc(b1-3)Gal(b1-4)GlcNAc(b1-3)Gal(b1-4)GlcNAc(b1-2)Man(a1-3)]Man(b1-4)GlcNAc(b1-4)[Fuc(a1-6)]GlcNAc
# Outline: as §1
# [7] = molecular target: GlcNAc(b1-3)Gal(b1-4)GlcNAc(b1-3)Gal(b1-4)GlcNAc(b1-3)Gal(b1-4)GlcNAc(b1-3)Gal(b1-4)GlcNAc(b1-2)Man(a1-3)[GlcNAc(b1-3)Gal(b1-4)GlcNAc(b1-3)Gal(b1-4)GlcNAc(b1-3)Gal(b1-4)GlcNAc(b1-3)Gal(b1-4)GlcNAc(b1-2)Man(a1-6)]Man(b1-4)GlcNAc(b1-4)GlcNAc
# Outline: as §1
# [8] = molecular target: GlcNAc(b1-3)Gal(b1-4)GlcNAc(b1-3)Gal(b1-4)GlcNAc(b1-3)Gal(b1-4)GlcNAc(b1-3)Gal(b1-4)GlcNAc(b1-2)Man(a1-3)[GlcNAc(b1-3)Gal(b1-4)GlcNAc(b1-3)Gal(b1-4)GlcNAc(b1-3)Gal(b1-4)GlcNAc(b1-3)Gal(b1-4)GlcNAc(b1-2)Man(a1-6)]Man(b1-4)GlcNAc(b1-4)[Fuc(a1-6)]GlcNAc
# Outline: as §1
# [9] = molecular target: GlcNAc(b1-3)Gal(b1-4)GlcNAc(b1-3)Gal(b1-4)GlcNAc(b1-3)Gal(b1-4)GlcNAc(b1-3)Gal(b1-4)GlcNAc(b1-2)[GlcNAc(b1-3)Gal(b1-4)GlcNAc(b1-3)Gal(b1-4)GlcNAc(b1-3)Gal(b1-4)GlcNAc(b1-3)Gal(b1-4)GlcNAc(b1-6)]Man(a1-6)[GlcNAc(b1-3)Gal(b1-4)GlcNAc(b1-3)Gal(b1-4)GlcNAc(b1-3)Gal(b1-4)GlcNAc(b1-3)Gal(b1-4)GlcNAc(b1-2)Man(a1-3)]Man(b1-4)GlcNAc(b1-4)[Fuc(a1-6)]GlcNAc
# Outline: as §1
# [10] = molecular target: GlcNAc(b1-3)Gal(b1-4)GlcNAc(b1-3)Gal(b1-4)GlcNAc(b1-3)GalNAc
# Outline: as §1
# [11] = molecular target: GlcNAc(b1-3)Gal(b1-4)GlcNAc(b1-3)GalNAc
# Outline: as §1
# [12] = molecular target: GlcNAc(b1-3)Gal(b1-4)GlcNAc(b1-3)[GlcNAc(b1-3)Gal(b1-4)GlcNAc(b1-3)]GalNAc
# Outline: as §1
# [13] = molecular target: GlcNAc(b1-3)Gal(b1-4)GlcNAc(b1-6)[Gal(b1-3)]GalNAc
# Outline: as §1
# [14] = molecular target: GlcNAc(b1-3)Gal(b1-4)GlcNAc(b1-6)[GlcNAc(b1-3)Gal(b1-3)]GalNAc
# Outline: as §1
# [15] = molecular target: GlcNAc(b1-3)Gal(b1-4)GlcNAc(b1-6)[GlcNAc(b1-3)]Gal(b1-4)GlcNAc
# Outline: as §1
# [16] = molecular target: GlcNAc(b1-3)GalNAc
# Outline: as §1
# [17] = molecular target: GlcNAc(b1-3)Man
# Outline: as §1
# [18] = molecular target: GlcNAc(b1-3)[GlcNAc(b1-4)][GlcNAc(b1-6)]GlcNAc
# Outline: as §1
# [19] = molecular target: GlcNAc(b1-3)[GlcNAc(b1-6)]Gal(b1-4)GlcNAc
# Outline: as §1
# [20] = molecular target: GlcNAc(b1-3)[GlcNAc(b1-6)]GalNAc
# Outline: as §1
# [21] = molecular target: GlcNAc(b1-4)Gal(b1-4)GlcNAc
# Outline: as §1
# [22] = molecular target: GlcNAc(b1-4)GlcNAc
# Outline: as §1
# [23] = molecular target: GlcNAc(b1-4)GlcNAc(b1-4)GlcNAc
# Outline: as §1
# [24] = molecular target: GlcNAc(b1-4)GlcNAc(b1-4)GlcNAc(b1-4)GlcNAc(b1-4)GlcNAc
# Outline: as §1
# [25] = molecular target: GlcNAc(b1-4)GlcNAc(b1-4)GlcNAc(b1-4)GlcNAc(b1-4)GlcNAc(b1-4)GlcNAc
# Outline: as §1
# [26] = molecular target: GlcNAc(b1-4)[GlcNAc(b1-6)]GalNAc
# Outline: as §1
# [27] = molecular target: GlcNAc(b1-6)Gal(b1-4)GlcNAc
# Outline: as §1
# [28] = molecular target: GlcNAc(b1-6)GalNAc
# Outline: as §1
# [29] = molecular target: GlcNAc6S(b1-3)Gal(b1-4)GlcNAc
# Outline: as §1
# [30] = molecular target: Kdn(a2-3)Gal(b1-3)GalNAc
# Outline: as §1
# [31] = molecular target: Kdn(a2-3)Gal(b1-3)GlcNAc
# Outline: as §1
# [32] = molecular target: Kdn(a2-3)Gal(b1-4)Glc
# Outline: as §1
# [33] = molecular target: Kdn(a2-3)Gal(b1-4)GlcNAc
# Outline: as §1
# [34] = molecular target: Kdn(a2-3)Gal(b1-4)[Fuc(a1-3)]GlcNAc
# Outline: as §1
# [35] = molecular target: Kdn(a2-6)Gal(b1-4)GlcNAc
# Outline: as §1
# [36] = molecular target: Man(a1-2)Man(a1-2)Man(a1-3)Man
# Outline: as §1
# [37] = molecular target: Man(a1-2)Man(a1-2)Man(a1-6)[Man(a1-3)]Man
# Outline: as §1
# [38] = molecular target: Man(a1-2)Man(a1-3)Man
# Outline: as §1
binder,measurement,setting,value
"AT5G24760(45) (Arabidopsis thaliana), Q8LEB2 (protein) MSASSSSFEQPQVITCNAAVAWRAGEPLVMEEVEVSPPQPLEIRIKVVCTSLCRSDLSAWESQSLLPRIFGHEAAGIVESIGEGVTEFEKGDHVLAVFTGECGSCRHCISGKSNMCQVLGMERKGLMHSDQKTRFSIKGKPVYHYCAVSSFSEYTVVHSGCAVKVDPLAPLHKICLLSCGVAAGLGAAWNVADVQKGSSVVIFGLGTVGLSVAQGAKLRGAAQILGVDINPAKAEQAKTFGVTDFINSNDLSEPIPQVIKRMTGGGADFSFECVGDTGIATTALQSCSDGWGMTVTLGVPKAKPEVSAHYGLFLSGKSLKGTLFGGWKPKSDLPSLIDKYMNKEIMIDEFITHNLSFDEINKAFVLMREGKCLRCVLHMPK",glycan array binding signal (z-score),[1],1.14
same,glycan array binding signal (z-score),[2],-0.185
same,glycan array binding signal (z-score),[3],0.498
same,glycan array binding signal (z-score),[4],0.23
same,glycan array binding signal (z-score),[5],0.079
same,glycan array binding signal (z-score),[6],0.813
same,glycan array binding signal (z-score),[7],-0.261
same,glycan array binding signal (z-score),[8],0.106
same,glycan array binding signal (z-score),[9],0.881
same,glycan array binding signal (z-score),[10],-0.514
same,glycan array binding signal (z-score),[11],-0.998
same,glycan array binding signal (z-score),[12],-0.426
same,glycan array binding signal (z-score),[13],-0.295
same,glycan array binding signal (z-score),[14],-0.178
same,glycan array binding signal (z-score),[15],-0.616
same,glycan array binding signal (z-score),[16],-0.519
same,glycan array binding signal (z-score),[17],1.28
same,glycan array binding signal (z-score),[18],0.138
same,glycan array binding signal (z-score),[19],0.495
same,glycan array binding signal (z-score),[20],0.1
same,glycan array binding signal (z-score),[21],2.53
same,glycan array binding signal (z-score),[22],0.352
same,glycan array binding signal (z-score),[23],0.93
same,glycan array binding signal (z-score),[24],0.118
same,glycan array binding signal (z-score),[25],0.72
same,glycan array binding signal (z-score),[26],-0.483
same,glycan array binding signal (z-score),[27],-0.147
same,glycan array binding signal (z-score),[28],0.425
same,glycan array binding signal (z-score),[29],0.418
same,glycan array binding signal (z-score),[30],-0.157
same,glycan array binding signal (z-score),[31],-0.232
same,glycan array binding signal (z-score),[32],-0.288
same,glycan array binding signal (z-score),[33],0.348
same,glycan array binding signal (z-score),[34],1.43
same,glycan array binding signal (z-score),[35],0.038
same,glycan array binding signal (z-score),[36],-0.914
same,glycan array binding signal (z-score),[37],2.01
same,glycan array binding signal (z-score),[38],0.085

# For convenience, part of the list above.
binder,measurement,setting,value
"AT5G24760(45) (Arabidopsis thaliana), Q8LEB2 (protein) MSASSSSFEQPQVITCNAAVAWRAGEPLVMEEVEVSPPQPLEIRIKVVCTSLCRSDLSAWESQSLLPRIFGHEAAGIVESIGEGVTEFEKGDHVLAVFTGECGSCRHCISGKSNMCQVLGMERKGLMHSDQKTRFSIKGKPVYHYCAVSSFSEYTVVHSGCAVKVDPLAPLHKICLLSCGVAAGLGAAWNVADVQKGSSVVIFGLGTVGLSVAQGAKLRGAAQILGVDINPAKAEQAKTFGVTDFINSNDLSEPIPQVIKRMTGGGADFSFECVGDTGIATTALQSCSDGWGMTVTLGVPKAKPEVSAHYGLFLSGKSLKGTLFGGWKPKSDLPSLIDKYMNKEIMIDEFITHNLSFDEINKAFVLMREGKCLRCVLHMPK",glycan array binding signal (z-score),[6],0.813
same,glycan array binding signal (z-score),[7],-0.261
